Results: patent EP3782997A1, “FUSED PYRIMIDINE COMPOUNDS AND PHARMACEUTICAL COMPOSITIONS THEREOF FOR THE TREATMENT OF FIBROTIC DISEASES” (Galapagos N.V., priority 2019, dated 2021)
For at least one compound, name, drawing or mass did not settle the structure.

Target: hENPP2 (Homo sapiens, UniProt Q13822)
Assay: Human ENPP2 (hENPP2) biochemical assay using LPC as substrate
Conditions: 150 µM LPC (palmitoyl 16:0), 37°C for 30 min
Procedure: The principle of the assay conswasts in quantifying the released choline with an enzymatic method using choline oxidase and peroxidase. Choline oxydation by choline oxydase releases betaine and peroxide. The latter was quantified in presence of HRP that converts the peroxide detection agent TOOS (CAS# 82692-93-1) and 4-aminoantipyrine into quinoneimine dye. The appearance of quinoneimine dye was measured spectrophotometrically at 555 nm and was proportional to the amount of choline released by ENPP2. Inhibition of ENPP2 results in a decrease of the signal.
Compound IC50 values were determined in a hENPP2 (UniProtKB/SwwassProt Sequence ref Q13822) biochemical assay using LPC as substrate.
5 µL of a dilution series of compound, starting from 50 µM highest concentration, 1/3 dilution, was added to the wells. hENPP2 was used at a final concentration of 1 µg/mL or 3 µg/mL (it will be appreciated by the skilled person that the potency read out was independent of the enzyme concentration). The enzyme was diluted in 50 mM Trwas-HCl pH 8.5, 500 mM NaCl, 5 mM KCl, 10 mM CaCl2, 0.1% fatty acid free BSA in a total volume of 10 µL. The reaction was started by the addition of 10 µL of 150 µM LPC (palmitoyl 16:0; Avanti Polar Lipids, Inc., Cat# 855675) diluted in the same buffer as described above and the mixture was incubated at 37°C for 30 min. […]

An IC50 of 0.01 to 100 nM was found for `Cc1cc(C)cc(Nc2ncc3c(n2)CN([C@H]2CCN(C(=O)c4ccc5[nH]nnc5c4)C[C@H]2C)C3)c1` [compound 36, 1H-benzotriazol-5-yl-[(3R,4S/3S,4R)-4-[2-(3,5-dimethylanilino)-5,7-dihydropyrrolo[3,4-d]pyrimidin-6-yl]-3-methyl-1-piperidyl]methanone] in this work.
